The supplement of paper PMC3334620
Whole data set: some 33,000 sequences, median “E-score (-0.5 to 0.5)” near -0.015, cut for the highest 2% near 0.3. Some of the results follow.

target: T1, Abf1 (UniProt P14164); assay: PBM E-score (8-mer binding enrichment) (E-score (-0.5 to 0.5)); higher = stronger / more preferred TF binding; settings: protein concentration: 200 nM; construct: GST-full length
T1 sequence: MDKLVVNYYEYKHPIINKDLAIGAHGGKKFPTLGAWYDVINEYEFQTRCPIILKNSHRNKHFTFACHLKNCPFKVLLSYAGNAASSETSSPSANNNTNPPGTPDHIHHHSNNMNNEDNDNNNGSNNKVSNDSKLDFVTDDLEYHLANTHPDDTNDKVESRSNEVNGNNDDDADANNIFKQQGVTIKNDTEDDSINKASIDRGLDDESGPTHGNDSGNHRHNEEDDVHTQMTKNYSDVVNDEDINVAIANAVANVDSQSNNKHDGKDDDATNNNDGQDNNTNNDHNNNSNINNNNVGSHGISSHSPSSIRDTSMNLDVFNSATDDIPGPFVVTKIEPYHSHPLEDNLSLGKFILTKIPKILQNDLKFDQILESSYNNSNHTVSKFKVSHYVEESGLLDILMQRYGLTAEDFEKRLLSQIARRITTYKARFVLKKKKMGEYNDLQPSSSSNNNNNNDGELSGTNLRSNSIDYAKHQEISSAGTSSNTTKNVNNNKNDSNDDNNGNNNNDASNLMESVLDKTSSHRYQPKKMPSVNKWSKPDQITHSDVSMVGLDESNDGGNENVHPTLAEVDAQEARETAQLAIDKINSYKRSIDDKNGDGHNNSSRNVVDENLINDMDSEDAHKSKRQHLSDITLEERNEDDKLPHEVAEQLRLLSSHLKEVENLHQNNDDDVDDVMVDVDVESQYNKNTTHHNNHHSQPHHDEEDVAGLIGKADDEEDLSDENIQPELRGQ
Procedure, shortened: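 Using PURExpress in vitro transcription/translation, GST-tagged yeast transcription factors were made in full-length or DNA-binding-domain form. These were applied at about 100-200 nM to double-stranded universal all-10-mer Agilent arrays, and bound protein was detected with fluorescent anti-GST. Scans were normalised with masliner before the Universal PBM Analysis Suite assigned E-scores to ungapped eight-base words pooled with their reverse complements.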

Sequence	PBM E-score
CTGCGCAG	-0.0277
CCTGGATC	-0.156
CTCACGCA	0.267
CTGGGCCA	-0.346
ATTATAAC	0.161
AGATCCGC	0.0185
CAGCACAG	0.00665
GTGTTAGA	0.118
GCGACTGA	-0.102
AGGAGTCG	-0.142
CAACGATA	0.25
ATGCCAAC	0.0313
AAATCTAG	0.045
CACAGCGG	-0.17
AATAGGGA	-0.114
GAACAATA	0.132
ATTAGTGC	0.148
TCAGGCGA	0.0781
GCTGGCAA	0.033
AAATTTGT	0.152
AGGAAGAT	-0.0381
GAGAAGAC	0.0656
CCGTCGCG	0.0721
CAGAAGAG	-0.0546
ATTCCGTG	0.23

Sequence	PBM E-score
ACTATCTA	0.116
CAGCCTCG	-0.0704
GAGCAAGA	-0.106
CCGAGAGG	-0.217
GTTCGGGA	-0.182
GGTGTTTA	-0.144
GTGAGATA	0.206
CCTGCCCG	-0.0943
AGAATGTG	0.0169
CGTACAAA	0.408
ATCCGAGC	-0.197
CCACGAAG	0.0703
CCGTGCCG	0.139
CTTTACCA	-0.0514
AGACTAAA	-0.0426
CACGCCAG	-0.19
AGATTTAC	-0.00972
ACTGTCAT	0.0825
AAGCCGTC	0.122
GAACCTGC	0.0103
ATGGTACC	-0.205
AAGAACAA	0.159
AAACAGGC	0.0516
GGAGAGAA	0.0256
CACAACGG	0.172

Sequence	PBM E-score
CATGGCCG	-0.236
TGCACACA	0.0666
CTTCGATC	-0.00251
CCTTGAGC	-0.126
GATCCGTA	0.0294
ATGGAAGG	-0.246
ATCTACGC	0.0634
CAAGAATA	-0.00994
CATACTGC	-0.0482
CCCTACCG	-0.213
CAGGCGGG	-0.255
TAAAAGAA	0.126
TGGTAGAA	-0.0563
GTTCAAAC	0.184
ATGAAGAG	0.0548
AACAGTCA	-0.00394
ACAGTCAT	-0.0824
ACCGCTCC	-0.211
CGGTAACC	-0.221
AGTGGCAC	-0.109
AAGTGAGG	-0.0213
CTTCGAAA	0.0483
ATGACTCA	0.243
ATTGACGA	0.377
ATGCAAAC	-0.138

Sequence	PBM E-score
TTATGGAA	0.0336
GTCAGAGA	0.0184
CCCATAAA	-0.054
CAGCCTGA	-0.063
ACTTTTAC	0.249
ACTTAGAA	-0.121
GAGTCCCC	-0.331
ATCCAATC	0.171
ACAGGAGT	-0.0385
AGCACGGC	0.0922
TACGCTGA	0.126
AATGGTGA	0.0239
GCCATAGA	-0.126
AGAAATAA	0.132
AGACTTAA	0.116
CGGGCTGA	-0.063
AATCTTAA	0.0217
CGGCGAAA	0.0826
ATCCGGAG	-0.0495
CGCCTGTA	-0.234
AATAAATG	0.149
AAACAATG	0.0947
GTGGATGA	0.153
CCCACCGG	-0.202
ACATGCAT	-0.129

Sequence	PBM E-score
AGAAGTCG	0.0466
CATGTCTA	0.0035
GTGGGCTA	-0.107
TCCATCAA	0.117
GGAGGTGA	0.166
AAACCTTG	-0.24
ATAACTAA	0.129
CACGTCAG	0.0977
ATGTTTAC	-0.169
CGTAGGAG	0.134
ACTGGTCC	-0.211
GCGCAGAA	-0.029
AAGTATCT	0.0923
GGCTGCAC	-0.25
GGCATTAA	0.0614
AGTCAACC	-0.102
GATGCTTA	0.138
ACCCCCGC	-0.232
AGCAGGAT	0.0229
ATAATAAT	0.216
ACATTCGA	0.0247
CGCTCAAC	-0.06
GGGATATA	-0.045
AGCCGGGC	-0.291
GTTGGGAA	0.049

Sequence	PBM E-score
GAACAGAC	-0.0783
GAGCAGGC	-0.357
ATCATAAG	0.105
TAGGCCAA	-0.067
AGCCCCGA	-0.268
ATTCGATC	0.0347
GTGGGTAA	-0.158
GACAGGCA	-0.153
ACTGAAGT	-0.0998
GGTATAGA	-0.0536
AAAGTATT	0.154
CGGTGTAA	0.00282
CACGCGCC	0.0117
GAGTAAGA	-0.0101
GGACGGGA	-0.166
GCTTAACC	-0.182
AACCACTA	-0.138
AGTGCAGC	-0.188
ACGATCGA	0.292
GTTCCTGA	-0.148
AATATGAT	0.236
AGTGACGC	-0.0198
CGCTTTTA	0.0565
ATCACGGC	0.35
CTAGAGGC	-0.21

6 entries from above, set out differently:
Sequence,PBM E-score
CACGCCAG,-0.19
AGATTTAC,-0.00972
ACTGTCAT,0.0825
AAGCCGTC,0.122
GAACCTGC,0.0103
ATGGTACC,-0.205

(cont.)

Sequence	PBM E-score
GTGCCGGA	0.046
CCGTCTCG	0.156
ACAAGTCA	0.0441
CTGTCGGA	-0.123
AACATGGG	-0.0427
GGCATAAC	0.109
AGATGCTA	0.032
ACACGTGG	0.187
ATGACAGG	-0.0297
AAATGCAT	0.0476
TGCAGGCA	-0.169
CCAATCGC	-0.113
AGCAAGGC	-0.144
ACCCTTGG	-0.273
TCCAGCCA	-0.232
TACAGTGA	0.156
TACTGCAA	-0.0335
ACCTGGAG	-0.0252
AACTTGCT	-0.238
TATTCCGA	0.119
ATTACGTC	0.184
CGCATAAC	0.059
